Our source for the AC50 values is PubChem BioAssay AID662 (National Center for Advancing Translational Sciences (NCATS), 2007).

Some of the results follow. The main result of the screen is listed elsewhere. These columns were measured beside it and carry no call. The list favours compounds with an active or inconclusive main result. Words in brackets tell the shape of the fitted curve; partial curves, single points and poor fits give uncertain potencies.

The experiment is described as follows: Cell signaling CRE-BLA (Fsk stim). Conditions: CHO CRE-bla reporter (cAMP response element driving beta-lactamase), forskolin EC10, beta-lactamase ratio; measured here: 460 nm blue channel. The method, boiled down: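 Using CellSensor CRE-bla CHO cells in Opti-MEM with 0.5% dialyzed FBS, compounds were titrated with EC10 NKH 477 for 3 h at 37 °C. CCF4 ratio (460/530 nm) gave %Activity; AC50 derived.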
As usually defined, the AC50 is the midpoint of the concentration-response curve, whichever way the signal moves. For the compound `COC(=O)c1ccc(CSc2nccn2C)cc1`, the AC50 was 0.00398 µM [falling, full curve, poor fit]. In the case of `c1ccc(-c2nnc(SCc3cn4ccsc4n3)o2)cc1` it was 10 µM [rising, single point]. Next, `O=C(CSc1nnc(-c2ccc(S(=O)(=O)N3CCOCC3)cc2)o1)c1ccccc1F`: 25.1 µM [falling, single point]; `O=C(CCC1N=C2c3ccccc3N=C(SCc3cccc(Cl)c3)N2C1=O)NCc1ccco1` (centres undefined): 0.794 µM [rising, full curve].

On to `COc1ccc(C(CNC(=O)c2ccc3c(c2)C(=O)N(CCC(C)C)C3=O)N2CCOCC2)cc1` (centres undefined), for which the AC50 is 0.2 µM [falling, partial curve].

`COc1cc(C(=O)Nc2nc3ccc(S(=O)(=O)N4CCOCC4)cc3s2)cc(OC)c1OC`: the AC50 was 5.01 µM [rising, partial curve].

For the compound `CN1CCN(CC(=O)N2CCn3c4c(c5cc(C6CCCCC6)ccc53)CCCC42)CC1` (centres undefined), the AC50 was 12.6 µM [rising, single point]. In the case of `Cc1[nH]c(=O)[nH]c(=O)c1S(=O)(=O)N(C)Cc1ccccc1` it was 5.01 µM [rising, single point]; in that of `CCNC(=O)CC1SC(=Nc2cccc(Cl)c2C)N(C)C1=O` (centres undefined), 3.98 µM [falling, partial curve].

On to `O=c1c(Cc2ccccc2)c(O)nc2n1CCS2`, for which the half-maximal activity concentration (AC50) was 15.8 µM [falling, partial curve]. Next, `COc1ccccc1Nc1nc(N)nc(CSc2ncccn2)n1`: 12.6 µM [rising, partial curve]; `CCn1c(SCc2ccc(OC)cc2)nnc1-c1ccncc1`: 25.1 µM [falling, single point]; `COc1ccc(/C=N/n2cnnc2SCc2ccccc2)cc1`: 12.6 µM [rising, single point]. Next, `COc1ccc(CNc2ccnc(-c3c(C)noc3C)n2)c(OC)c1`: 12.6 µM [rising, single point]; `O=C(CSc1ncccn1)NC(=O)NCc1ccccc1`: 3.16 µM [falling, partial curve]; `O=C(Nc1nc(-c2ccc3c(c2)OCCO3)cs1)c1ccc(S(=O)(=O)N2CCCCC2)cc1`: 20 µM [falling, single point]. Next, `COc1ccc(CCNC(=O)c2cc(-c3ccccc3)on2)cc1OC`: 0.631 µM [rising, full curve]; `COc1cccc(OC)c1OCCNC[C@@H]1COc2ccccc2O1`: 10 µM [falling, partial curve, poor fit]; `COc1ccc(Oc2ncc3nc(-c4ccccc4)c(=O)n(C4CC4)c3n2)cc1`: 15.8 µM [rising, partial curve]. `CC1=C(C(N)=O)C(c2cccc(OCc3ccccc3)c2)n2nnnc2N1` (centres undefined): the AC50 is 25.1 µM [rising, single point]. In the case of `O=S(=O)(c1ccc2c(c1)C(=NO)c1cc(S(=O)(=O)N3CCCCC3)ccc1-2)N1CCCCC1` it was 3.98 µM [falling, full curve].

As to `COCCn1c(=O)c(-c2ccc(OC)cc2)nc2cnc(Oc3ccc(OC)cc3)nc21`, the AC50 was 5.01 µM [rising, partial curve]. With `N#Cc1nc(N2CCCCC2)nc(N2CCOCC2)n1`, the AC50 was 2.51 µM [rising, full curve, poor fit]. In the case of `COc1cccc(-c2csc(N3CCN(C(=O)C4CCCCC4)CC3)n2)c1` it was 20 µM [falling, single point]; in that of `FC(F)(F)c1ccccc1-c1ccc2ncnc(NC3CC3)c2c1`, 5.01 µM [rising, full curve]. Next, `c1ccc(-c2nc(NCc3ccco3)c3ccccc3n2)nc1`: 12.6 µM [rising, single point]; `CC(C)c1ccc(NC(=O)c2cccnc2)cc1`: 1 µM [falling, partial curve]; `O=C(CSc1n[nH]c(-c2ccccc2)n1)NC(=O)NCc1ccco1`: 5.01 µM [falling, single point]. Next, `O=c1c(-c2ccc(Cl)cc2)nc2cncnc2n1Cc1ccccc1`: 12.6 µM [rising, partial curve]; `Cc1nn(CCO)c(C)c1Oc1ccccc1O`: 0.00316 µM [falling, full curve, poor fit]; `COCCn1nnnc1CN(Cc1cc2cc(OC)c(OC)cc2[nH]c1=O)C1CCCC1`: 12.6 µM [rising, single point]. With `CC(C)CCOCC(=O)Nc1cccc(C(=O)O)c1`, the AC50 is 3.98 µM [falling, partial curve]. Next, `CCOc1ccccc1NC(=O)c1ccccc1-c1nc(-c2ccccc2)no1`: 3.98 µM [falling, partial curve]; `O=c1[nH]c(SCc2cc(=O)n3ccccc3n2)nc2c1CCC2`: 10 µM [rising, partial curve]; `COC(=O)c1ccc(S(=O)(=O)NCCSc2nnc3c4ccccc4n(C)c3n2)cc1`: 3.98 µM [rising, single point].

In the case of `O=c1c(-c2cccs2)nc2cnc(N3CCNCC3)nc2n1-c1ccccc1`, the AC50 was 3.16 µM [rising, full curve]. In the case of `CCOc1cc(C2NC(=O)NC(C)=C2C(=O)OC(C)CC)cc(Br)c1O` (centres undefined) it was 10 µM [rising, partial curve]; in that of `COCCn1c(=S)[nH]c2cc(C(=O)N3CCN(c4ccc(F)cc4)CC3)ccc2c1=O`, 12.6 µM [rising, single point]; in that of `COc1ccccc1-c1ccc2ncnc(NCc3cccnc3)c2c1`, 3.16 µM [rising, full curve, poor fit]. In the case of `COC(=O)c1ccc(NC(=O)CNC(=O)C2CCCCC2)cc1` it was 1 µM [rising, single point]; in that of `CCSc1nnc2c(n1)OC=Nc1ccc(Br)cc1-2`, 15.8 µM [falling, partial curve]; in that of `COc1cccc(Cn2c(=O)c(-c3ccccc3)nc3cnc(OC)nc32)c1`, 10 µM [rising, partial curve]. Next, `CCCCCOC(=O)C1=C(C)NC(=O)NC1c1ccccc1OCC` (centres undefined): 12.6 µM [rising, single point].

With `CCOC(=O)c1ccc(-n2c(=S)sc3c(=O)[nH]c(C)nc32)cc1`, the AC50 is 12.6 µM [falling, partial curve].
